# Laboratory results published in the supplement of paper PMC8728848.
# The other results are listed elsewhere or left out.
# B1: YghJ (Escherichia coli), E3PJ90 (protein)
# chain: MNKKFKYKKSLLAAILSATLLAGCDGGGSGSSSDTPPVDSGTGSLPEVKPDPTPNPEPTPEPTPDPEPTPEPIPDPEPTPEPEPEPVPTKTGYLTLGGSQRVTGATCNGESSDGFTFKPGEDVTCVAGNTTIATFNTQSEAARSLRAVEKVSFSLEDAQELAGSDDKKSNAVSLVTSSNSCPANTEQVCLTFSSVIESKRFDSLYKQIDLAPEEFKKLVNEEVENNAATDKAPSTHTSPVVPVTTPGTKPDLNASFVSANAEQFYQYQPTEIILSEGRLVDSQGYGVAGVNYYTNSGRGVTGENGEFSFSWGEAISFGIDTFELGSVRGNKSTIALTELGDEVRGANIDQLIHRYSTTGQNNTRVVPDDVRKVFAEYPNVINEIINLSLSNGATLGEGEQVVNLPNEFIEQFNTGQAKEIDTAICAKTDGCNEARWFSLTTRNVNDGQIQGVINKLWGVDTNYKSVSKFHVFHDSTNFYGSTGNARGQAVVNISNAAFPILMARNDKNYWLAFGEKRAWDKNELAYITEAPSIVRPENVTRETASFNLPFISLGQVGDGKLMVIGNPHYNSILRCPNGYSWNGGVNKDGQCTLNSDPDDMKNFMENVLRYLSNDRWLPDAKSSMTVGTNLETVYFKKHGQVLGNSAPFAFHKDFTGITVKPMTSYGNLNPDEVPLLILNGFEYVTQWGSDPYSIPLRADTSKPKLTQQDVTDLIAYMNKGGSVLIMENVMSNLKEESASGFVRLLDAAGLSMALNKSVVNNDPQGYPDRVRQRRSTPIWVYERYPAVDGKPPYTIDDTTKEVIWKYQQENKPDDKPKLEVASWQEEVEGKQVTQFAFIDEADHKTPESLAAAKQRILDAFPGLEVCKDSDYHYEVNCLEYRPGTDVPVTGGMYVPQYTQLDLSADTAKAMLQAADLGTNIQRLYQHELYFRTNGRQGERLNSVDLERLYQNMSVWLWNETKYRYEEGKEDELGFKTFTEFLNCYTNNAYVGTQCSAELKKSLIDNKMIYGEESSKAGMMNPSYPLNYMEKPLTRLMLGRSWWDLNIKVDVEKYPGVVNTNGETVTQNINLYSAPTKWFAGNMQSTGLWAPAQQEVSIESKSTVPVTVTVALADDLTGREKHEVSLNRPPRVTKTYDLKANDKVTFKVPYGGLIYIKGDSKEVQSADFTFTGVVKAPFYKDGKWQHDLNSPAPLGELESASFVYTTPKKNLNASNYTGGLEQFANDLDTFASSMNDFYGRDSEDGKHRMFTYKNLPGHKHRFANDVQISIGDAHSGYPVMNSSFSPNSTTLPTTPLNDWLIWHEVGHNAAETPLTVPGATEVANNVLALYMQDRYLGKMNRVADDITVAPEYLEESNGQAWARGGAGDRLLMYAQLKEWAEKNFDIKKWYPDGTPLPEFYSEREGMKGWNLFQLMHRKARGDEVSNDKFGGKNYCAESNGNAADTLMLCASWVAQTDLSEFFKKWNPGANAYQLPGASEMSFEGGVSQSAYNTLASLDLPKPEQGPETINQVTEHKMSAE
# Tests used:
# Assay in all cases: glycan array binding signal (z-score within array); higher = stronger binding
# Details in all cases: glycan notation: IUPAC condensed, linker removed
# [1] = target: GlcNAc(b1-4)GlcNAc(b1-4)GlcNAc(b1-4)GlcNAc(b1-4)GlcNAc(b1-4)GlcNAc
# In short: (§1)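 The Consortium for Functional Glycomics database supplied 3228 glycan arrays, of which those lacking an available protein sequence were dropped. The binding signal, a within-array Z-score, was averaged across arrays of the same protein sequence and across linkers. Negative scores can be read as non-binding.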
# [2] = target: GlcNAc(b1-4)[GlcNAc(b1-6)]GalNAc
# In short: as §1
# [3] = target: GlcNAc(b1-6)Gal(b1-4)GlcNAc
# In short: as §1
# [4] = target: GlcNAc(b1-6)GalNAc
# In short: as §1
# [5] = target: GlcNAc6S(b1-3)Gal(b1-4)GlcNAc
# In short: as §1
# [6] = target: Kdn(a2-3)Gal(b1-3)GalNAc
# In short: as §1
# [7] = target: Kdn(a2-3)Gal(b1-3)GlcNAc
# In short: as §1
# [8] = target: Kdn(a2-3)Gal(b1-4)Glc
# In short: as §1
# [9] = target: Kdn(a2-3)Gal(b1-4)GlcNAc
# In short: as §1
# [10] = target: Kdn(a2-3)Gal(b1-4)[Fuc(a1-3)]GlcNAc
# In short: as §1
# [11] = target: Kdn(a2-6)Gal(b1-4)GlcNAc
# In short: as §1
# [12] = target: Man(a1-2)Man(a1-2)Man(a1-3)Man
# In short: as §1
# [13] = target: Man(a1-2)Man(a1-2)Man(a1-6)[Man(a1-3)]Man
# In short: as §1
# [14] = target: Man(a1-2)Man(a1-3)Man
# In short: as §1
# [15] = target: Man(a1-2)Man(a1-3)[Man(a1-2)Man(a1-6)]Man
# In short: as §1
# [16] = target: Man(a1-2)Man(a1-3)[Man(a1-2)Man(a1-6)]Man(a1-6)[Man(a1-2)Man(a1-2)Man(a1-3)]Man
# In short: as §1
# [17] = target: Man(a1-2)Man(a1-3)[Man(a1-2)Man(a1-6)]Man(a1-6)[Man(a1-2)Man(a1-2)Man(a1-3)]Man(b1-4)GlcNAc(b1-4)GlcNAc
# In short: as §1
# [18] = target: Man(a1-2)Man(a1-3)[Man(a1-6)]Man(a1-6)[Man(a1-2)Man(a1-3)]Man(b1-4)GlcNAc(b1-4)GlcNAc
# In short: as §1
# [19] = target: Man(a1-2)Man(a1-6)[Man(a1-3)]Man(a1-6)[Man(a1-2)Man(a1-2)Man(a1-3)]Man
# In short: as §1
# [20] = target: Man(a1-2)Man(a1-6)[Man(a1-3)]Man(a1-6)[Man(a1-2)Man(a1-2)Man(a1-3)]Man(b1-4)GlcNAc(b1-4)GlcNAc
# In short: as §1
# [21] = target: Man(a1-3)[Man(a1-6)]Man
# In short: as §1
# [22] = target: Man(a1-3)[Man(a1-6)]Man(a1-6)[Man(a1-2)Man(a1-3)]Man(b1-4)GlcNAc(b1-4)GlcNAc
# In short: as §1
# [23] = target: Man(a1-3)[Man(a1-6)]Man(a1-6)[Man(a1-3)]Man
# In short: as §1
# [24] = target: Man(a1-3)[Man(a1-6)]Man(a1-6)[Man(a1-3)]Man(b1-4)GlcNAc(b1-4)GlcNAc
# In short: as §1
# [25] = target: Man(a1-3)[Man(a1-6)]Man(b1-4)GlcNAc(b1-4)GlcNAc
# In short: as §1
# [26] = target: Man(a1-3)[Man(a1-6)]Man(b1-4)GlcNAc(b1-4)[Fuc(a1-6)]GlcNAc
# In short: as §1
# [27] = target: Man(a1-6)Man
# In short: as §1
# [28] = target: Man(b1-4)GlcNAc
# In short: as §1
# [29] = target: MurNAc(b1-4)GlcNAc
# In short: as §1
# [30] = target: Neu5Ac(a2-3)Gal
# In short: as §1
# [31] = target: Neu5Ac(a2-3)Gal(b1-3)GalNAc
# In short: as §1
# [32] = target: Neu5Ac(a2-3)Gal(b1-3)GalNAc(b1-3)Gal(a1-4)Gal(b1-4)Glc
# In short: as §1
# [33] = target: Neu5Ac(a2-3)Gal(b1-3)GalNAc(b1-4)Gal(b1-4)Glc
# In short: as §1
# [34] = target: Neu5Ac(a2-3)Gal(b1-3)GalNAc(b1-4)[Neu5Ac(a2-3)]Gal(b1-4)Glc
# In short: as §1
# [35] = target: Neu5Ac(a2-3)Gal(b1-3)GalNAc(b1-4)[Neu5Ac(a2-8)Neu5Ac(a2-3)]Gal(b1-4)Glc
# In short: as §1
# [36] = target: Neu5Ac(a2-3)Gal(b1-3)GalNAc6S
# In short: as §1
# [37] = target: Neu5Ac(a2-3)Gal(b1-3)GlcNAc
# In short: as §1
# [38] = target: Neu5Ac(a2-3)Gal(b1-3)GlcNAc(b1-2)Man
# In short: as §1
# [39] = target: Neu5Ac(a2-3)Gal(b1-3)GlcNAc(b1-2)Man(a1-3)[GlcNAc(b1-4)][Neu5Ac(a2-3)Gal(b1-3)GlcNAc(b1-2)Man(a1-6)]Man(b1-4)GlcNAc(b1-4)GlcNAc
# In short: as §1
# [40] = target: Neu5Ac(a2-3)Gal(b1-3)GlcNAc(b1-2)Man(a1-3)[Neu5Ac(a2-3)Gal(b1-3)GlcNAc(b1-2)Man(a1-6)]Man(b1-4)GlcNAc(b1-4)GlcNAc
# In short: as §1
# [41] = target: Neu5Ac(a2-3)Gal(b1-3)GlcNAc(b1-2)[Neu5Ac(a2-3)Gal(b1-3)GlcNAc(b1-4)]Man(a1-6)[Neu5Ac(a2-3)Gal(b1-3)GlcNAc(b1-2)Man(a1-3)]Man(b1-4)GlcNAc(b1-4)GlcNAc
# In short: as §1
# [42] = target: Neu5Ac(a2-3)Gal(b1-3)GlcNAc(b1-3)Gal(b1-3)GlcNAc
# In short: as §1
# [43] = target: Neu5Ac(a2-3)Gal(b1-3)GlcNAc(b1-3)Gal(b1-4)GlcNAc
# In short: as §1
# [44] = target: Neu5Ac(a2-3)Gal(b1-3)GlcNAc(b1-3)GalNAc
# In short: as §1
# [45] = target: Neu5Ac(a2-3)Gal(b1-3)GlcNAc(b1-6)GalNAc
# In short: as §1
binder,measurement,setting,value
B1,glycan array binding signal (z-score),[1],-2.26
same,glycan array binding signal (z-score),[2],-0.479
same,glycan array binding signal (z-score),[3],0.015
same,glycan array binding signal (z-score),[4],-1.05
same,glycan array binding signal (z-score),[5],-1.38
same,glycan array binding signal (z-score),[6],0.314
same,glycan array binding signal (z-score),[7],-0.046
same,glycan array binding signal (z-score),[8],0.908
same,glycan array binding signal (z-score),[9],0.018
same,glycan array binding signal (z-score),[10],-0.222
same,glycan array binding signal (z-score),[11],-0.364
same,glycan array binding signal (z-score),[12],0.657
same,glycan array binding signal (z-score),[13],-1.38
same,glycan array binding signal (z-score),[14],-0.928
same,glycan array binding signal (z-score),[15],-0.82
same,glycan array binding signal (z-score),[16],0.358
same,glycan array binding signal (z-score),[17],-0.01
same,glycan array binding signal (z-score),[18],-0.163
same,glycan array binding signal (z-score),[19],-2.12
same,glycan array binding signal (z-score),[20],-0.299
same,glycan array binding signal (z-score),[21],-1.45
same,glycan array binding signal (z-score),[22],-1.36
same,glycan array binding signal (z-score),[23],-1.22
same,glycan array binding signal (z-score),[24],-1.53
same,glycan array binding signal (z-score),[25],-0.69
same,glycan array binding signal (z-score),[26],1.51
same,glycan array binding signal (z-score),[27],1.96
same,glycan array binding signal (z-score),[28],0.997
same,glycan array binding signal (z-score),[29],1.93
same,glycan array binding signal (z-score),[30],-1.37
same,glycan array binding signal (z-score),[31],0.058
same,glycan array binding signal (z-score),[32],-1.31
same,glycan array binding signal (z-score),[33],0.186
same,glycan array binding signal (z-score),[34],0.049
same,glycan array binding signal (z-score),[35],0.378
same,glycan array binding signal (z-score),[36],-0.496
same,glycan array binding signal (z-score),[37],0.286
same,glycan array binding signal (z-score),[38],-1.85
same,glycan array binding signal (z-score),[39],-1.12
same,glycan array binding signal (z-score),[40],2.23
same,glycan array binding signal (z-score),[41],-0.007
same,glycan array binding signal (z-score),[42],-1.35
same,glycan array binding signal (z-score),[43],-0.972
same,glycan array binding signal (z-score),[44],-0.159
same,glycan array binding signal (z-score),[45],0.418

# Reformatted: results already given.
binder	measurement	setting	value
B1	glycan array binding signal (z-score)	[4]	-1.05
same	glycan array binding signal (z-score)	[5]	-1.38
